# Laboratory results: the supplement of paper PMC10849652
# Protein sequences, listed by entry. Tags and fused reporters are not part of them. Lines headed by an entry give the natural chain unless they say otherwise; changes in a name come on top.
# UniProt Q14674: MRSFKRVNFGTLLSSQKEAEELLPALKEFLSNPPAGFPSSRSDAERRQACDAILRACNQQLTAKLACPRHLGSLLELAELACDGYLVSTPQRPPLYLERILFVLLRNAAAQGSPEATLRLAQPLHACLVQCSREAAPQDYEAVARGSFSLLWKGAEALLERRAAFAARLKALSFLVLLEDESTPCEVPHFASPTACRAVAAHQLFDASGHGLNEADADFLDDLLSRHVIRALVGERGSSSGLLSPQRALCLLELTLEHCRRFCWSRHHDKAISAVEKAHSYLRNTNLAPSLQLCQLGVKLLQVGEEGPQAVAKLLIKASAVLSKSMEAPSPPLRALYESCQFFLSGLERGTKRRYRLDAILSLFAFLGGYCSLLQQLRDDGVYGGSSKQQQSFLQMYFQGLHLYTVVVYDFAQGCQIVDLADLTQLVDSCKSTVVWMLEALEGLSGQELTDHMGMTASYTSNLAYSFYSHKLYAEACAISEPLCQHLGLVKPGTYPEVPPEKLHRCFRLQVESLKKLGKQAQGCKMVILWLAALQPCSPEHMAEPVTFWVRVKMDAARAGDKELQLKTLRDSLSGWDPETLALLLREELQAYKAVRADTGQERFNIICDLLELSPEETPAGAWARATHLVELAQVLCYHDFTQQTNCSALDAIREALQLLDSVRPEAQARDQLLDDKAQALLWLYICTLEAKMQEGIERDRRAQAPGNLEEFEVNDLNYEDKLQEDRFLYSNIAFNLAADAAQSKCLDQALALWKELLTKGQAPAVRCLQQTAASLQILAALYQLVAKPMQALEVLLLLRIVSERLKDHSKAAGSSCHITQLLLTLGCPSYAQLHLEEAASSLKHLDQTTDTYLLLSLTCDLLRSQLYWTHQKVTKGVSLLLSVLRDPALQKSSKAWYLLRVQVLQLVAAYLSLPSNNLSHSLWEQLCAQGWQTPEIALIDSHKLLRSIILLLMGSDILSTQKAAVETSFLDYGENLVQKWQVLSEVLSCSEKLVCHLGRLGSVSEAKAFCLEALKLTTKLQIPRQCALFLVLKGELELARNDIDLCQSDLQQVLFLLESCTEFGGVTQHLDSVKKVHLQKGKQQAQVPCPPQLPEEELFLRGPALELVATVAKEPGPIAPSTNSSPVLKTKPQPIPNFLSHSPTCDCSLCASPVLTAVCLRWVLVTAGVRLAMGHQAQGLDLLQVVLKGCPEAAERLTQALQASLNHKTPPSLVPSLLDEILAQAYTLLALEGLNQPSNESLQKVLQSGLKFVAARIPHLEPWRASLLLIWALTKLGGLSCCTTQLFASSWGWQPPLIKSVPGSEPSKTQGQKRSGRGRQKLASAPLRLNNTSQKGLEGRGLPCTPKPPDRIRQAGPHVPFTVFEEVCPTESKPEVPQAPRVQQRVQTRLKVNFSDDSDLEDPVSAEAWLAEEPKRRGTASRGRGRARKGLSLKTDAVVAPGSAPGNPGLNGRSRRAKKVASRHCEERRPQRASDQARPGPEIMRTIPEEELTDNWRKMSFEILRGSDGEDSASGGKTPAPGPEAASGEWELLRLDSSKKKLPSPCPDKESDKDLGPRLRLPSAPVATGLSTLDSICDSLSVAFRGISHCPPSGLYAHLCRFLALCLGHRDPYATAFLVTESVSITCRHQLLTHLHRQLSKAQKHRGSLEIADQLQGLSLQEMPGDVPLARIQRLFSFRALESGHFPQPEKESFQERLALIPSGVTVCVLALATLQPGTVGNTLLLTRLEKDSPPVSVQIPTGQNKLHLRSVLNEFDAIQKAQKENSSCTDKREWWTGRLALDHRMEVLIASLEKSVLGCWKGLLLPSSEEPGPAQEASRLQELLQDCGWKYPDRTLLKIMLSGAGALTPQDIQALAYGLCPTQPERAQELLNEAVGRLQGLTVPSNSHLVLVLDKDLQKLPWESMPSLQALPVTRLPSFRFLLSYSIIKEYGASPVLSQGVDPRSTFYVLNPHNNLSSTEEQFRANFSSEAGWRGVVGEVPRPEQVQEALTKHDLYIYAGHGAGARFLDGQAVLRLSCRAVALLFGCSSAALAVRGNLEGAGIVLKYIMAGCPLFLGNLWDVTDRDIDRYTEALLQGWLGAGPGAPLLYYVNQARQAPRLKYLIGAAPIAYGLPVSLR
# UniProt Q7Z2K6: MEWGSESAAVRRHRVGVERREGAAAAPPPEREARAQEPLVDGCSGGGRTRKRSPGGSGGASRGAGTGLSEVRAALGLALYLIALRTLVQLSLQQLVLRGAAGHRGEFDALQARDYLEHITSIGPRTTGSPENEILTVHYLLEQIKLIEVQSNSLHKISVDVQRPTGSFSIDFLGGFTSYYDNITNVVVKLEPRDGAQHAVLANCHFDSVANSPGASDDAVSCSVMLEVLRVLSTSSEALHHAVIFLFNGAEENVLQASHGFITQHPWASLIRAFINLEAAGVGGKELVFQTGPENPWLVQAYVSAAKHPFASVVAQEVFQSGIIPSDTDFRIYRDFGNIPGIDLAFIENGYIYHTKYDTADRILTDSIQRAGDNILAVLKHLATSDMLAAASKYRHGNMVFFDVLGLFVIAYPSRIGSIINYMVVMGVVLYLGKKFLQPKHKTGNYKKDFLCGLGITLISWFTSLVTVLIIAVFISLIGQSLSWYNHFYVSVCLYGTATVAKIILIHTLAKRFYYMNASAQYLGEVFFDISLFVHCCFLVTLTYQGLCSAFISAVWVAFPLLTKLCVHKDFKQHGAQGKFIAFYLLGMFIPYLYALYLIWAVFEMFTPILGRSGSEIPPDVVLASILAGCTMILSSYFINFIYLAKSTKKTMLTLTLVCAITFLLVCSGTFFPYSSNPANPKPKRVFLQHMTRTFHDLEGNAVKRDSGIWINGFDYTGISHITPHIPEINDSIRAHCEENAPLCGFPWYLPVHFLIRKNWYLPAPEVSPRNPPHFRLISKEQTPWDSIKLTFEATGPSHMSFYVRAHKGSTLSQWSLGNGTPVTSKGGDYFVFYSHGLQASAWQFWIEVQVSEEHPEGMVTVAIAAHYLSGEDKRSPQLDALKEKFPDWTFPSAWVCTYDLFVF
# UniProt Q9Y3B2, whole entry, looked up: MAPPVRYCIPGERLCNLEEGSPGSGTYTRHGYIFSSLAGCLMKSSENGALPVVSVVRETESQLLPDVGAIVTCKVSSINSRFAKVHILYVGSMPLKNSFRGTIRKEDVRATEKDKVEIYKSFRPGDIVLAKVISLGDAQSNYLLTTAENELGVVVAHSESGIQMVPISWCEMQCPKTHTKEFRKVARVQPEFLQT
# UniProt Q96E09: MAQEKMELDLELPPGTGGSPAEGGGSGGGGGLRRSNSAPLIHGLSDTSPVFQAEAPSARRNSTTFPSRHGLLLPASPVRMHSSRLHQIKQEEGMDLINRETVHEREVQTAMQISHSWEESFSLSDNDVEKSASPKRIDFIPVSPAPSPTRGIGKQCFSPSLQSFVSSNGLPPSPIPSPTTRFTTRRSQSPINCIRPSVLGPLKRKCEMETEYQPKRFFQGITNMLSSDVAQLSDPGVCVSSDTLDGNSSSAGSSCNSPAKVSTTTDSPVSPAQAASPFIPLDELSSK
# UniProt Q9UKR5: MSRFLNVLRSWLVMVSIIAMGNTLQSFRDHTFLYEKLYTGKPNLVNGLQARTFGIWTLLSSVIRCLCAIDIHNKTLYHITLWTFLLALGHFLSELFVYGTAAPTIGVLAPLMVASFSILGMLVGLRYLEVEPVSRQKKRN
# UniProt Q9UNN5: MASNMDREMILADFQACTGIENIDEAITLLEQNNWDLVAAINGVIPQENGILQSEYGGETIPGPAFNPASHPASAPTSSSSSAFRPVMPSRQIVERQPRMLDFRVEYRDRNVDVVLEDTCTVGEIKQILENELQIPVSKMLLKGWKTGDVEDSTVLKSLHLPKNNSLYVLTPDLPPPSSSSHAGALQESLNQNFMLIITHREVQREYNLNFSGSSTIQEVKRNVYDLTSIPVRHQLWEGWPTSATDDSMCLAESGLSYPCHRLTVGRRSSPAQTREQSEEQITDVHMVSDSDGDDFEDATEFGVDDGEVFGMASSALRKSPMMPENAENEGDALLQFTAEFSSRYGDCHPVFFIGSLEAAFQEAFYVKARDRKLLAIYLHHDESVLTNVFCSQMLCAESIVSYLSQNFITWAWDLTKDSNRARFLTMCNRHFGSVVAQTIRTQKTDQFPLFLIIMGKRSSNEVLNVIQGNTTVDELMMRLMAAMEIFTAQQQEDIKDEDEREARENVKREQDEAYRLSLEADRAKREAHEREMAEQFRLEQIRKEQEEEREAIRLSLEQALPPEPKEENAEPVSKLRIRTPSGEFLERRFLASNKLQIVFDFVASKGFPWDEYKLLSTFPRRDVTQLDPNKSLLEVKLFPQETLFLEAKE
# UniProt Q9NPD3, whole entry, looked up: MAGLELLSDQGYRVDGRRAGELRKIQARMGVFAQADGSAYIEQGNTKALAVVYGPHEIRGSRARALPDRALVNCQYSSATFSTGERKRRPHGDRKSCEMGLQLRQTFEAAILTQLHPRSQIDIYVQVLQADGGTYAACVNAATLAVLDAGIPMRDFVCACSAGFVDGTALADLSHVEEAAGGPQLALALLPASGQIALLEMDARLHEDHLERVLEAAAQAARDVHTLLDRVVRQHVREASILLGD
# UniProt Q8TAG9: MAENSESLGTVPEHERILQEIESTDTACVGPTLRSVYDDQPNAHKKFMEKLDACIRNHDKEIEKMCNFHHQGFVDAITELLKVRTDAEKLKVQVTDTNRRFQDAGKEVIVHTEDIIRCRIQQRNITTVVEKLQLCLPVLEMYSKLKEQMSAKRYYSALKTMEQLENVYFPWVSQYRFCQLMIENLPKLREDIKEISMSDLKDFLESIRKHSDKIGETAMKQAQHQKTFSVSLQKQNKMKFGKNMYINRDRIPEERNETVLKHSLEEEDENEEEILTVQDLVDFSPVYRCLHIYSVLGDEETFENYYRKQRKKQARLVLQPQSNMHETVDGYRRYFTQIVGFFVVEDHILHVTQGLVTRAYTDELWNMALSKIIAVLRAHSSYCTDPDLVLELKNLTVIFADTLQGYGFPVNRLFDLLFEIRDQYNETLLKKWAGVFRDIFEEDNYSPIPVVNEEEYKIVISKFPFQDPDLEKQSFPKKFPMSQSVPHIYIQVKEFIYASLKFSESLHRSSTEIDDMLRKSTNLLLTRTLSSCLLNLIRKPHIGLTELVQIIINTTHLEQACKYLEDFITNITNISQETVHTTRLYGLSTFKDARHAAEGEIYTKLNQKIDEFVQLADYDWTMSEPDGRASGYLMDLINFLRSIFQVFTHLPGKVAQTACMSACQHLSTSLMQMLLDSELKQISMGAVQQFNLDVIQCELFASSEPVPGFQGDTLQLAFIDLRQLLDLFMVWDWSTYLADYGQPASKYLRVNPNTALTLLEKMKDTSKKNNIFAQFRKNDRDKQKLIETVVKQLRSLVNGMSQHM
# UniProt O95208: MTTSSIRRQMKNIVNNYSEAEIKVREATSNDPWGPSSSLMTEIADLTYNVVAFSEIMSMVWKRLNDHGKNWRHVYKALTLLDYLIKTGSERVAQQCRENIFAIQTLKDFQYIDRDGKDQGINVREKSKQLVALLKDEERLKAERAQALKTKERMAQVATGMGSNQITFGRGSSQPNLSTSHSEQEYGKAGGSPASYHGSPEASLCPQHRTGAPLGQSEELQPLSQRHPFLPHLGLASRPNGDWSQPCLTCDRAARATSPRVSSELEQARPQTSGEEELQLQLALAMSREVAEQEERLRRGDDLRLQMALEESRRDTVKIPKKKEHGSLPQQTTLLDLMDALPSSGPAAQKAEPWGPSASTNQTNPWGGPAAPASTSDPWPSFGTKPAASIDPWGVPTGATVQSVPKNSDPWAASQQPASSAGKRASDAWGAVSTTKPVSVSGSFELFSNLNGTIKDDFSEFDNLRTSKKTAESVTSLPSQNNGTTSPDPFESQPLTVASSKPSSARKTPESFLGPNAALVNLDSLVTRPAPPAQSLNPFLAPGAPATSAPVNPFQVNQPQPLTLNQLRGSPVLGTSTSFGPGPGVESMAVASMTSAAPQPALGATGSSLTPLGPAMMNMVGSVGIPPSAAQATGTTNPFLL
# UniProt Q6IPR1: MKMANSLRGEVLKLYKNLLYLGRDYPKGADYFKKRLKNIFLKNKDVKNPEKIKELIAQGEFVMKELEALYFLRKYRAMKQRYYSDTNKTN
# UniProt P16930: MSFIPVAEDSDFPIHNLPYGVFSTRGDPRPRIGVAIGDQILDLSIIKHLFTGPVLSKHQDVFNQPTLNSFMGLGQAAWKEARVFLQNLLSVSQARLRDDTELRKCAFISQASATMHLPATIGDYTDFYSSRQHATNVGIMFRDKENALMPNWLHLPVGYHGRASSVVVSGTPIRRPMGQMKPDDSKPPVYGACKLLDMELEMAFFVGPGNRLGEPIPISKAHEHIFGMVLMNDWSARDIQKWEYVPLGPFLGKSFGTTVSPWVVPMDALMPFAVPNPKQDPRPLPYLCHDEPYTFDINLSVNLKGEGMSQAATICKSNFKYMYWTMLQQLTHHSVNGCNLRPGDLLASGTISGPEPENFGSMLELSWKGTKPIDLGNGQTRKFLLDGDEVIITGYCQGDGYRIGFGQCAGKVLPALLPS
# The other results are listed elsewhere or left out.
# Columns and labels:
# Experiment in all cases: log2 fold change, soluble protein after heating vs DMSO (PISA); higher = thermal stabilisation; K562 cells, 10 uM, 30 min; active = over 0.2 and 3.5 SD of the protein, either way, in both replicates (recomputed)
# erlotinib = compound: C#Cc1cccc(Nc2ncnc3cc(OCCOC)c(OCCOC)cc23)c1 [erlotinib]
# How it was run: (§1)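 For each measurement, 10 μM compound was applied for 30 min to K562 cells at 2×10^6 cells/mL. Aliquots were heated for 3 min across 48°C-58°C, pooled, and extracted in PBS with 0.5% NP-40 at 4°C; the supernatant after 21,000xg for 90 min was soluble protein. This was quantified by TMTpro 16plex LC-MS/MS with channel sums equalised, and thermal stability was reported relative to control samples from duplicates, on a log2 fold-change scale.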
# [1] = compound: C/C(=N\NC(=O)C1=CC(=CC=C1)S(=O)(=O)N2CCOCC2)/C3=C(C=CC(=C3)Cl)O
# How it was run: as §1
# [2] = compound: C1=CC(=C(C=C1Cl)C2=NC3=NC=CN=C3C(=N2)NC4=CC=NC=C4)F
# How it was run: as §1
# [3] = compound: C1=CC(=CC=C1C2=NC3=C(N2)C=C(C=C3)C(=O)N)OC4=CC=C(C=C4)Cl
# How it was run: as §1
# [4] = compound: C1=CC2=C(C=CC(=C2)/C=C\3/C(=O)NC(=NCC4=CC=CS4)S3)N=C1
# How it was run: as §1
# [5] = compound: C1=CC2=NC=CN=C2C=C1/C=C/3\C(=O)NC(=O)S3
# How it was run: as §1
# [6] = compound: C1=CC=C(C=C1)C2=NC(=C(N2)C3=CC=NC=C3)C4=CC(=C(C=C4)Cl)O
# How it was run: as §1
# [7] = compound: C1=CC=C2C(=C1)C3=NNC4=CC=CC(=C43)C2=O
# How it was run: as §1
# [8] = compound: C1CCN(C1)C(=O)NC2=CC=CC(=C2)NC3=NC=C(C(=N3)NCCC4=CN=CN4)Br
# How it was run: as §1
# [9] = compound: C1CN(CCC1(CC2=CC=C(C=C2)Cl)N)C3=NC=NC4=C3C=CN4
# How it was run: as §1
Target,log2 fold change (erlotinib),log2 fold change [1],log2 fold change [2],log2 fold change [3],log2 fold change [4],log2 fold change [5],log2 fold change [6],log2 fold change [7],log2 fold change [8],log2 fold change [9]
FAM160B1 (UniProt Q5W0V3),inactive: 0.034,inactive: 0.085,inactive: 0.012,inactive: -0.007,inactive: 0.019,inactive: 0.037,inactive: -0.005,inactive: 0,inactive: -0.035,inactive: -0.021
ESPL1 (UniProt Q14674),inactive: 0.096,inactive: -0.026,inactive: -0.425,inactive: 0.108,inactive: -0.225,inactive: 0.03,inactive: -0.328,inactive: 0.182,–,–
EXOSC5 (UniProt Q9NQT4),inactive: -0.024,inactive: -0.039,inactive: -0.05,inactive: 0.011,inactive: 0,inactive: 0.002,inactive: 0.019,inactive: 0.011,inactive: -0.033,inactive: -0.045
EXOC5 (UniProt O00471),inactive: 0.054,inactive: 0.092,inactive: -0.002,inactive: -0.044,inactive: 0.01,inactive: 0,inactive: -0.006,inactive: 0.015,inactive: 0.004,inactive: -0.015
ERMP1 (UniProt Q7Z2K6),inactive: -0.002,inactive: 0.014,inactive: 0,inactive: -0.004,inactive: -0.003,inactive: 0.025,inactive: 0.023,inactive: -0.022,inactive: -0.008,inactive: 0.044
EXOSC1 (UniProt Q9Y3B2),inactive: -0.011,inactive: -0.005,inactive: -0.155,inactive: -0.019,inactive: 0.02,inactive: -0.023,inactive: -0.049,inactive: -0.001,inactive: 0.001,inactive: -0.021
ERLEC1 (UniProt Q96DZ1),inactive: 0.023,inactive: 0.037,inactive: 0.03,inactive: 0.017,inactive: 0.065,inactive: 0.026,inactive: -0.031,inactive: -0.033,inactive: -0.007,inactive: -0.02
FAM20B (UniProt O75063),inactive: -0.03,inactive: 0.087,inactive: -0.022,inactive: -0.006,inactive: -0.033,inactive: -0.027,inactive: 0.044,inactive: 0.058,inactive: -0.012,inactive: 0.034
"FADS1, A0A0A0MR51",inactive: 0.016,inactive: -0.11,inactive: -0.049,inactive: -0.134,inactive: 0.09,inactive: 0.05,active: 0.231,inactive: -0.008,inactive: -0.006,inactive: 0.002
FAM122A (UniProt Q96E09),inactive: 0.095,inactive: 0.073,inactive: 0.053,inactive: -0.025,inactive: -0.068,inactive: 0.051,inactive: -0.019,inactive: 0.03,inactive: 0.031,inactive: -0.075
FAM136A (UniProt Q96C01),inactive: 0,inactive: -0.015,inactive: 0.055,inactive: -0.012,inactive: 0.029,inactive: 0.081,inactive: 0.027,inactive: -0.012,inactive: -0.018,inactive: -0.043
ESYT2 isoform 2 (UniProt A0FGR8),inactive: 0.048,inactive: 0.031,inactive: 0.026,inactive: 0.01,inactive: 0.096,inactive: -0.016,inactive: 0.022,inactive: -0.027,inactive: 0.004,inactive: -0.01
ERG28 (UniProt Q9UKR5),inactive: -0.114,inactive: -0.12,inactive: 0.103,inactive: 0.066,inactive: -0.11,inactive: 0.056,inactive: 0.019,inactive: 0.1,inactive: -0.068,inactive: 0.229
EVC2 (UniProt Q86UK5),inactive: -0.01,inactive: -0.044,inactive: -0.013,inactive: -0.035,inactive: -0.069,inactive: -0.019,inactive: -0.002,inactive: 0.061,inactive: -0.042,inactive: -0.117
F5 (UniProt P12259),inactive: -0.122,inactive: 0,inactive: -0.002,inactive: 0.061,inactive: -0.096,inactive: -0.054,inactive: -0.018,inactive: -0.064,inactive: 0,inactive: 0.052
EXOC1 (UniProt Q9NV70),inactive: 0.057,inactive: 0.163,inactive: -0.104,inactive: -0.05,inactive: 0.17,inactive: 0.013,inactive: 0.051,inactive: 0.054,inactive: -0.044,inactive: -0.073
FAF1 (UniProt Q9UNN5),inactive: 0.015,inactive: 0.028,inactive: 0.073,inactive: -0.008,inactive: -0.012,inactive: 0.017,inactive: 0.003,inactive: -0.022,inactive: 0.015,inactive: 0.017
ETFB (UniProt P38117),inactive: 0.05,inactive: -0.026,inactive: 0.071,inactive: -0.057,inactive: -0.016,inactive: 0.009,inactive: 0.006,inactive: 0.013,inactive: 0.056,inactive: 0.022
EXOSC4 (UniProt Q9NPD3),inactive: 0.016,inactive: 0.017,inactive: 0.036,inactive: 0.003,inactive: 0.031,inactive: 0.016,inactive: 0.069,inactive: -0.026,inactive: -0.075,inactive: 0.032
ERCC2 (UniProt P18074),inactive: 0.04,inactive: 0.049,inactive: 0.2,inactive: 0.033,inactive: 0.041,inactive: -0.051,inactive: 0.014,inactive: -0.054,inactive: -0.005,inactive: 0.036
FAM117A (UniProt Q9C073),inactive: 0.127,inactive: 0.054,inactive: -0.056,inactive: 0.053,active: -0.279,inactive: -0.101,inactive: -0.041,inactive: -0.129,inactive: -0.143,inactive: -0.121
ETF1 (UniProt P62495),inactive: 0.07,inactive: 0.012,inactive: 0.051,inactive: -0.025,inactive: 0.042,inactive: 0.035,inactive: 0.006,inactive: 0.007,inactive: 0.018,inactive: 0.022
EXOC6 (UniProt Q8TAG9),inactive: 0.073,inactive: 0.127,inactive: 0.006,inactive: -0.025,inactive: 0.096,inactive: 0.076,inactive: 0.069,inactive: 0.003,inactive: -0.045,inactive: -0.042
EPN2 (UniProt O95208),inactive: 0.016,inactive: 0.051,inactive: -0.006,inactive: -0.003,inactive: 0.076,inactive: -0.011,inactive: 0.082,inactive: -0.026,inactive: -0.028,inactive: -0.055
FAM207A (UniProt Q9NSI2),inactive: -0.082,inactive: -0.092,inactive: -0.039,inactive: -0.032,inactive: -0.204,inactive: -0.018,inactive: -0.027,inactive: 0.006,inactive: -0.159,inactive: -0.054
EXOC3 (UniProt O60645),inactive: 0.065,inactive: 0.03,inactive: -0.022,inactive: -0.103,inactive: 0.052,inactive: -0.025,inactive: 0.011,inactive: 0.005,inactive: -0.044,inactive: -0.094
ETFRF1 (UniProt Q6IPR1),inactive: 0.063,inactive: -0.032,inactive: -0.043,inactive: 0.025,inactive: 0.179,inactive: 0.066,inactive: 0.059,inactive: 0.023,inactive: 0.016,inactive: -0.102
ERAP1 isoform 2 (UniProt Q9NZ08),inactive: -0.041,inactive: -0.022,inactive: -0.032,inactive: -0.02,inactive: -0.021,inactive: 0,inactive: 0.014,inactive: 0.007,inactive: -0.017,inactive: -0.013
EPN1 (UniProt Q9Y6I3),inactive: 0.02,inactive: 0.065,inactive: 0.066,inactive: 0.004,inactive: 0.029,inactive: 0.049,inactive: 0.021,inactive: -0.014,inactive: -0.023,inactive: 0.046
FAH isoform 2 (UniProt P16930),inactive: 0.017,inactive: -0.025,inactive: 0.171,inactive: -0.07,inactive: 0.091,inactive: 0.086,inactive: -0.128,inactive: 0,inactive: 0.054,inactive: 0.117

# Whole records as entered above. Order of values: log2 fold change (erlotinib)	log2 fold change [1]	log2 fold change [2]	log2 fold change [3]	log2 fold change [4]	log2 fold change [5]	log2 fold change [6]	log2 fold change [7]	log2 fold change [8]	log2 fold change [9]
# EXOC6 (UniProt Q8TAG9) is entered as inactive: 0.073	inactive: 0.127	inactive: 0.006	inactive: -0.025	inactive: 0.096	inactive: 0.076	inactive: 0.069	inactive: 0.003	inactive: -0.045	inactive: -0.042
# ERCC2 (UniProt P18074) is entered as inactive: 0.04	inactive: 0.049	inactive: 0.2	inactive: 0.033	inactive: 0.041	inactive: -0.051	inactive: 0.014	inactive: -0.054	inactive: -0.005	inactive: 0.036
